Experimental data as given in patent publication US20130045962A1, “PEPTIDE DEFORMYLASE INHIBITORS” (priority 2007, published 2013).
Some entries share one result that the patent states for a list of compounds.

Sequences of proteins named here, by UniProt entry; tags and fusion partners are left off. A change or cut given only in a name is not applied to a line headed by its entry.
UniProt P44786: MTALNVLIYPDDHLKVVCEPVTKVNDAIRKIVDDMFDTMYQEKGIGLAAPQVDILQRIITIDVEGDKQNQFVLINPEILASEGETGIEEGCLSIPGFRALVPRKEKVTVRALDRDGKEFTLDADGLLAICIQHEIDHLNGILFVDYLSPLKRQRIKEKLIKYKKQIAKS

Molecular target: Haemophilus influenzae PDF (Haemophilus influenzae, UniProt P44786)
Experiment: PDF IC50 assay (FDH-coupled), H. influenzae PDF
Assay type: biochemical
Conditions: read-out: IC50, inhibition of H. influenzae PDF activity

Compound | IC50 [nM]
Cc1nc(NNC(=O)[C@H](CC2CCCC2)CN(O)C=O)c(F)c(N2CCN(C)[C@@H](C)[C@@H]2C)n1 [Example 202, N-[(2R)-2-(Cyclopentylmethyl)-3-(2-{5-fluoro-2-methyl-6-[(2S,3S)-2,3,4-trimethyl-1-piperazinyl]-4-pyrimidinyl}hydrazino)-3-oxopropyl]-N-hydroxyformamide] | ≤ 100
Cc1nc(NNC(=O)[C@H](CC2CCCC2)CN(O)C=O)c(F)c(N2CCN(C)[C@H](C)[C@H]2C)n1 [Example 203, N-[(2R)-2-(Cyclopentylmethyl)-3-(2-{5-fluoro-2-methyl-6-[(2R,3R)-2,3,4-trimethyl-1-piperazinyl]-4-pyrimidinyl}hydrazino)-3-oxopropyl]-N-hydroxyformamide] | ≤ 100
O=CN(O)C[C@@H](CC1CCCC1)C(=O)NNc1nc(Cl)nc(NCc2ccsc2)c1F [Example 204, [(2R)-3-(2-{2-Chloro-5-fluoro-6-[(3-thienylmethyl)amino]-4-pyrimidinyl}hydrazino)-2-(cyclopentylmethyl)-3-oxopropyl]hydroxyformamide] | ≤ 100
CSc1nc(NNC(=O)[C@H](CC2CCCC2)CN(O)C=O)c(F)c(N(C)Cc2nccs2)n1 [Example 205, ((2R)-2-(Cyclopentylmethyl)-3-{2-[5-fluoro-6-[methyl(1,3-thiazol-2-ylmethyl)amino]-2-(methylthio)-4-pyrimidinyl]hydrazino}-3-oxopropyl)hydroxyformamide] | ≤ 100
CSc1nc(NCc2nccs2)c(F)c(NNC(=O)[C@H](CC2CCCC2)CN(O)C=O)n1 [Example 206, [(2R)-2-(Cyclopentylmethyl)-3-(2-{5-fluoro-2-(methylthio)-6-[(1,3-thiazol-2-ylmethyl)amino]-4-pyrimidinyl}hydrazino)-3-oxopropyl]hydroxyformamide] | ≤ 100
CN(Cc1ccco1)c1nc(Cl)nc(NNC(=O)[C@H](CC2CCCC2)CN(O)C=O)c1F [Example 207, [(2R)-3-(2-{2-Chloro-5-fluoro-6-[(2-furanylmethyl)(methyl)amino]-4-pyrimidinyl}hydrazino)-2-(cyclopentylmethyl)-3-oxopropyl]hydroxyformamide] | ≤ 100
C[C@@H]1CN(CCO)CCN1c1nc(Cl)nc(NNC(=O)[C@H](CC2CCCC2)CN(O)C=O)c1F [Example 209, [(2R)-3-(2-{2-Chloro-5-fluoro-6-[(2R)-4-(2-hydroxyethyl)-2-methyl-1-piperazinyl]-4-pyrimidinyl}hydrazino)-2-(cyclopentylmethyl)-3-oxopropyl]hydroxyformamide] | ≤ 100
Cc1nc(NNC(=O)[C@H](CC2CCCC2)CN(O)C=O)c(F)c(N2CCC[C@H]2C2(N3CCCC3)CC2)n1 [Example 210, {(2R)-2-(Cyclopentylmethyl)-3-[2-(5-fluoro-2-methyl-6-{(2S)-2-[1-(1-pyrrolidinyl)cyclopropyl]-1-pyrrolidinyl}-4-pyrimidinyl)hydrazino]-3-oxopropyl}hydroxyformamide] | ≤ 100
CCC1(N(C)C)CN(c2nc(Cl)nc(NNC(=O)[C@H](CC3CCCC3)CN(O)C=O)c2F)C1 [Example 211, [(2R)-3-(2-{2-Chloro-6-[3-(dimethylamino)-3-ethyl-1-azetidinyl]-5-fluoro-4-pyrimidinyl}hydrazino)-2-(cyclopentylmethyl)-3-oxopropyl]hydroxyformamide] | ≤ 100
CCC1(N(C)C)CN(c2nc(SC)nc(NNC(=O)[C@H](CC3CCCC3)CN(O)C=O)c2F)C1 [Example 212, ((2R)-2-(Cyclopentylmethyl)-3-{2-[6-[3-(dimethylamino)-3-ethyl-1-azetidinyl]-5-fluoro-2-(methylthio)-4-pyrimidinyl]hydrazino}-3-oxopropyl)hydroxyformamide] | ≤ 100
O=CN(O)C[C@@H](CC1CCCC1)C(=O)NNc1nc(Cl)nc(N2CC(O)(C3CC3)C2)c1F [Example 213, [(2R)-3-{2-[2-Chloro-6-(3-cyclopropyl-3-hydroxy-1-azetidinyl)-5-fluoro-4-pyrimidinyl]hydrazino}-2-(cyclopentylmethyl)-3-oxopropyl]hydroxyformamide] | ≤ 100
C[C@@H]1CN(c2nc(Cl)nc(NNC(=O)[C@H](CC3CCCC3)CN(O)C=O)c2F)[C@H](C)CN1C [Example 214, N-[(2R)-3-(2-{2-Chloro-5-fluoro-6-[(2R,5R)-2,4,5-trimethyl-1-piperazinyl]-4-pyrimidinyl}hydrazino)-2-(cyclopentylmethyl)-3-oxopropyl]-N-hydroxyformamide] | ≤ 100
Cc1nc(NNC(=O)[C@H](CC2CCCC2)CN(O)C=O)c(F)c(N2C[C@@H](C)N(C)C[C@H]2C)n1 [Example 215, N-[(2R)-2-(Cyclopentylmethyl)-3-(2-{5-fluoro-2-methyl-6-[(2R,5R)-2,4,5-trimethyl-1-piperazinyl]-4-pyrimidinyl}hydrazino)-3-oxopropyl]-N-hydroxyformamide] | ≤ 100
O=CN(O)C[C@@H](CC1CCCC1)C(=O)NNc1nc(CF)nc(N2CCN3CCOC[C@@H]3C2)c1F [Example 216, [(2R)-2-(Cyclopentylmethyl)-3-(2-{5-fluoro-2-(fluoromethyl)-6-[(9aS)-hexahydropyrazino[2,1-c][1,4]oxazin-8(1H)-yl]-4-pyrimidinyl}hydrazino)-3-oxopropyl]hydroxyformamide] | ≤ 100
CSc1nc(NNC(=O)[C@H](CC2CCCC2)CN(O)C=O)c(F)c(N2CC(O)(C3CC3)C2)n1 [Example 217, ((2R)-2-(Cyclopentylmethyl)-3-{2-[6-(3-cyclopropyl-3-hydroxy-1-azetidinyl)-5-fluoro-2-(methylthio)-4-pyrimidinyl]hydrazino}-3-oxopropyl)hydroxyformamide] | ≤ 100
CCC1(N2CCCC2)CN(c2nc(SC)nc(NNC(=O)[C@H](CC3CCCC3)CN(O)C=O)c2F)C1 [Example 218, ((2R)-2-(Cyclopentylmethyl)-3-{2-[6-[3-ethyl-3-(1-pyrrolidinyl)-1-azetidinyl]-5-fluoro-2-(methylthio)-4-pyrimidinyl]hydrazino}-3-oxopropyl)hydroxyformamide] | ≤ 100
O=CN(O)C[C@@H](CC1CCCC1)C(=O)NNc1nc(Cl)nc(NCC2CC2)c1F [Example 219, [(2R)-3-(2-{2-Chloro-6-[(cyclopropylmethyl)amino]-5-fluoro-4-pyrimidinyl}hydrazino)-2-(cyclopentylmethyl)-3-oxopropyl]hydroxyformamide] | ≤ 100
O=CN(O)C[C@@H](CC1CCCC1)C(=O)NNc1nc(Cl)nc(NCCc2ccsc2)c1F [Example 220, [(2R)-3-[2-(2-Chloro-5-fluoro-6-{[2-(3-thienyl)ethyl]amino}-4-pyrimidinyl)hydrazino]-2-(cyclopentylmethyl)-3-oxopropyl]hydroxyformamide] | ≤ 100
CN1CCN(c2nc(Cl)nc(NNC(=O)[C@H](CC3CCCC3)CN(O)C=O)c2F)[C@@H]2CCCC[C@@H]21 [Example 221, [(2R)-3-{2-[2-Chloro-5-fluoro-6-(4-methyloctahydro-1(2H)-quinoxalinyl)-4-pyrimidinyl]hydrazino}-2-(cyclopentylmethyl)-3-oxopropyl]hydroxyformamide] | ≤ 100
Cc1nc(NNC(=O)[C@H](CC2CCCC2)CN(O)C=O)c(F)c(N2CCN(C)[C@H]3CCCC[C@H]32)n1 [Example 222, ((2R)-2-(Cyclopentylmethyl)-3-{2-[5-fluoro-2-methyl-6-(4-methyloctahydro-1(2H)-quinoxalinyl)-4-pyrimidinyl]hydrazino}-3-oxopropyl)hydroxyformamide] | ≤ 100
